{"source": "PubChem BioAssay AID1259308 (NCATS, 2017)", "aim": "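Candidate targets for better recombinant protein yield in mammalian cells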 (primary screen)", "system": "human HEK293 embryonic kidney cells stably expressing firefly luciferase (HEK-CMV-Luc2-Hygro)", "reagent": "single siRNA against human genes, 0.8 pmol siRNA per well", "time to read-out": "72 h", "read-out": "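Reporter luminescence and viable-cell signal on separate replicate plates, given as percent of non-targeting control and median/MAD z-scores, plus per-cell luciferase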", "scale": "total luciferase, z-score and total luciferase, % of control: higher = more reporter protein produced", "hit rule": "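Active when the median/MAD z-score for overall luciferase is greater than 3; a gene was taken forward for validation with new siRNAs if at least two of its three siRNAs passed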", "meaning of the calls": "active = raised luciferase; inactive = no rise", "note": "In all, the deposit lists about 59,000 reagents; below is a random part of them. In the full data, about 1,510 (2.6%) were called active. 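Calls use total luciferase alone and ignore viability, so some active siRNAs may act by altering cell number.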 Reagents against one gene are numbered here. Not all columns of the deposit are shown."}
{"gene knocked down":"CARD9 (caspase recruitment domain family member 9)","reagent":1,"total luciferase, z-score":-1.01,"total luciferase, % of control":61.8,"outcome":"inactive"}
{"gene knocked down":"CARD9 (caspase recruitment domain family member 9)","reagent":2,"total luciferase, z-score":0.453,"total luciferase, % of control":90.9,"outcome":"inactive"}
{"gene knocked down":"CARD9 (caspase recruitment domain family member 9)","reagent":3,"total luciferase, z-score":-0.336,"total luciferase, % of control":75.2,"outcome":"inactive"}
{"gene knocked down":"LOC646012 (aurora kinase A interacting protein 1 pseudogene)","reagent":1,"total luciferase, z-score":2.06,"total luciferase, % of control":123,"outcome":"inactive"}
{"gene knocked down":"LOC646012 (aurora kinase A interacting protein 1 pseudogene)","reagent":2,"total luciferase, z-score":0.113,"total luciferase, % of control":84.1,"outcome":"inactive"}
{"gene knocked down":"LOC646012 (aurora kinase A interacting protein 1 pseudogene)","reagent":3,"total luciferase, z-score":0.366,"total luciferase, % of control":89.2,"outcome":"inactive"}

Next part (2 carried over from the part before).
{"gene knocked down":"LOC646012 (aurora kinase A interacting protein 1 pseudogene)","reagent":2,"total luciferase, z-score":0.113,"total luciferase, % of control":84.1,"outcome":"inactive"}
{"gene knocked down":"LOC646012 (aurora kinase A interacting protein 1 pseudogene)","reagent":3,"total luciferase, z-score":0.366,"total luciferase, % of control":89.2,"outcome":"inactive"}
{"gene knocked down":"SPAG8 (sperm associated antigen 8)","reagent":1,"total luciferase, z-score":1.65,"total luciferase, % of control":115,"outcome":"inactive"}
{"gene knocked down":"SPAG8 (sperm associated antigen 8)","reagent":2,"total luciferase, z-score":-0.239,"total luciferase, % of control":77.1,"outcome":"inactive"}
{"gene knocked down":"SPAG8 (sperm associated antigen 8)","reagent":3,"total luciferase, z-score":1.08,"total luciferase, % of control":103,"outcome":"inactive"}
{"gene knocked down":"TMBIM6 (transmembrane BAX inhibitor motif containing 6)","reagent":1,"total luciferase, z-score":-3.22,"total luciferase, % of control":17.8,"outcome":"inactive"}
{"gene knocked down":"TMBIM6 (transmembrane BAX inhibitor motif containing 6)","reagent":2,"total luciferase, z-score":-0.0764,"total luciferase, % of control":80.4,"outcome":"inactive"}
{"gene knocked down":"TMBIM6 (transmembrane BAX inhibitor motif containing 6)","reagent":3,"total luciferase, z-score":-0.0832,"total luciferase, % of control":80.2,"outcome":"inactive"}
